The other results are listed elsewhere or left out.
Experiments:
Experiment in all cases: log2 fold change, soluble protein after heating vs DMSO (PISA); higher = thermal stabilisation; K562 cells, 10 uM, 30 min; active = over 0.2 and 3.5 SD of the protein, either way, in both replicates (recomputed)
[1] = compound: Cc1ccc(NC(=O)c2ccc(CN3CC[C@H](N(C)C)C3)c(C(F)(F)F)c2)cc1Nc1nccc(-c2cncnc2)n1 [bafetinib]
In short: (§1)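 K562 cells at 2×10^6 cells/mL were given 10 μM compound for 30 min. Aliquots then went through 3 min of heating across 48°C-58°C, were pooled, and were extracted in PBS with 0.5% NP-40 at 4°C, and the supernatant after 21,000xg for 90 min was quantified by TMTpro 16plex LC-MS/MS with channel sums equalised. Thermal stability relative to control samples, from duplicates, is given as log2 fold change.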

Chains of the proteins cited; added tags and fusions are not shown. Lines headed by an entry give the natural chain unless they say otherwise; changes in a name come on top.
UniProt P47756, whole entry, looked up: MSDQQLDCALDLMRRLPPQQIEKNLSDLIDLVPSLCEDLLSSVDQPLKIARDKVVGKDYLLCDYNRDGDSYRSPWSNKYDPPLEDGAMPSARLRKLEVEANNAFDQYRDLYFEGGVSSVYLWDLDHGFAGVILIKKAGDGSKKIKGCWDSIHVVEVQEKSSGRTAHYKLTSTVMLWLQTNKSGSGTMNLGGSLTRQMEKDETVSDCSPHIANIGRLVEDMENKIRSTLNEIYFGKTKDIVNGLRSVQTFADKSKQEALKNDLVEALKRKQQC
UniProt O75155: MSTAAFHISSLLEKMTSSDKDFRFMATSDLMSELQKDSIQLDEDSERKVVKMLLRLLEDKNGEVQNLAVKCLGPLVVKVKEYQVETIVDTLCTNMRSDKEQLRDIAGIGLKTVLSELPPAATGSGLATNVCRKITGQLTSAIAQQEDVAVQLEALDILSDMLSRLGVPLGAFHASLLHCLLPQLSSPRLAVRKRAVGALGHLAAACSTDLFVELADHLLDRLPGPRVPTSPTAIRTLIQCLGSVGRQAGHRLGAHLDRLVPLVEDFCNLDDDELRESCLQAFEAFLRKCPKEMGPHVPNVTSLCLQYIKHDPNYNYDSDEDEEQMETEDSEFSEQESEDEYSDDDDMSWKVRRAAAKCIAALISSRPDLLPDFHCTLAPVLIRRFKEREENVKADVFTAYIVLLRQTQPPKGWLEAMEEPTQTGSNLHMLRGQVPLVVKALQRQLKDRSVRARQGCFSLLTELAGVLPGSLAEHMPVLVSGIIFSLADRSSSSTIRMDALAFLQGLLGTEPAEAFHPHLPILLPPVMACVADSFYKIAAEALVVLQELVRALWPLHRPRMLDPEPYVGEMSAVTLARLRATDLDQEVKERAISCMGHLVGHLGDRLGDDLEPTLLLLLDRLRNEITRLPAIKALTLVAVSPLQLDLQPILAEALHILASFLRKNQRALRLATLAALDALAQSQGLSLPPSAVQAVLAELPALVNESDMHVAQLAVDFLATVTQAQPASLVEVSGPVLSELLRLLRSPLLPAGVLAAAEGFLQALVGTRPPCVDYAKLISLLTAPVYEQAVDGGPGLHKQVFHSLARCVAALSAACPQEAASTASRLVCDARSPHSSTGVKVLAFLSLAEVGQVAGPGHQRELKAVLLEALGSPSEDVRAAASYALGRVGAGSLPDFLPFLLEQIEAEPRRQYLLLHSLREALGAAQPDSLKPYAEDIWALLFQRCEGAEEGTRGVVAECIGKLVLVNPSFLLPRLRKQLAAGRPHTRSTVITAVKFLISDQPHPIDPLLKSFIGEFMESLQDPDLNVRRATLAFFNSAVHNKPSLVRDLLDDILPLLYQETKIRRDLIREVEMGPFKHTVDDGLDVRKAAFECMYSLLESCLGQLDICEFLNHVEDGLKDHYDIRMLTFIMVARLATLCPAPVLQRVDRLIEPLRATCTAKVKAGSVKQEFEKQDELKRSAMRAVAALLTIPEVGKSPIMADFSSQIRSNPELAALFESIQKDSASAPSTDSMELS
UniProt Q86VP6: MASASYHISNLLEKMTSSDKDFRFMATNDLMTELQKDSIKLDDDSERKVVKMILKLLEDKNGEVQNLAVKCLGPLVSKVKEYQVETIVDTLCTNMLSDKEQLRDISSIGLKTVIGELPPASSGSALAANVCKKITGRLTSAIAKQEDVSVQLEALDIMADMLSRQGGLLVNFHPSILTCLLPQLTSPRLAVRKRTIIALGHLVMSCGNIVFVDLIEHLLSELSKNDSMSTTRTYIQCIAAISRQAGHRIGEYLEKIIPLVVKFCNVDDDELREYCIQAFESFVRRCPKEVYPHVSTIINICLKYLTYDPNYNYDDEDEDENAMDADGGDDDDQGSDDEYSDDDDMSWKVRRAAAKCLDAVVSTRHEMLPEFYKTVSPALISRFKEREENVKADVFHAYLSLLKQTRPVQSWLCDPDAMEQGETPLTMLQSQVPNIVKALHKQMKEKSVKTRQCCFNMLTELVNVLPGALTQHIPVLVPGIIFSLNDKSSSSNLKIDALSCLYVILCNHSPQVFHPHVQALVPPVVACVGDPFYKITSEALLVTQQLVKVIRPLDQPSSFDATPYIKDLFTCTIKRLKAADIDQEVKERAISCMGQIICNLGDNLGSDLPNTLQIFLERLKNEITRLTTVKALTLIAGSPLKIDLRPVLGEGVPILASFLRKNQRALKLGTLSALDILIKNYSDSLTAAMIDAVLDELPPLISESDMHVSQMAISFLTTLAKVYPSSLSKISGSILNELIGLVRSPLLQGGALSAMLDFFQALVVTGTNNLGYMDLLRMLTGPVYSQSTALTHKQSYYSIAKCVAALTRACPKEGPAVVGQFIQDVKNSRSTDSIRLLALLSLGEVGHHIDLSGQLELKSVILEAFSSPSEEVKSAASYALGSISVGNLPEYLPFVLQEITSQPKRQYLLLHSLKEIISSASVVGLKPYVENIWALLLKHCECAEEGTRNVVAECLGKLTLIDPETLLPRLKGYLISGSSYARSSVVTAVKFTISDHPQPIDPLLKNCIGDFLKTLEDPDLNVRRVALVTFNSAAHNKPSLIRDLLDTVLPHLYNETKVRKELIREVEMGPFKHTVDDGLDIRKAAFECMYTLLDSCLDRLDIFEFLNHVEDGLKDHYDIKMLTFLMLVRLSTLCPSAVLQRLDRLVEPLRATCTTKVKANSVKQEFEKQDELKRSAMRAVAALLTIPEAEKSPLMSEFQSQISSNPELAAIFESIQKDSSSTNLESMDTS
UniProt Q9NX04: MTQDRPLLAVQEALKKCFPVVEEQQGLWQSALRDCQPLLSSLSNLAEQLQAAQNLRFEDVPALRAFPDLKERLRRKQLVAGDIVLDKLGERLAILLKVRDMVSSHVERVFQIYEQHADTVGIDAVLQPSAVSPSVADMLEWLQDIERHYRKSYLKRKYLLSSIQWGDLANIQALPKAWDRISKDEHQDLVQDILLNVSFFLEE
UniProt P49069: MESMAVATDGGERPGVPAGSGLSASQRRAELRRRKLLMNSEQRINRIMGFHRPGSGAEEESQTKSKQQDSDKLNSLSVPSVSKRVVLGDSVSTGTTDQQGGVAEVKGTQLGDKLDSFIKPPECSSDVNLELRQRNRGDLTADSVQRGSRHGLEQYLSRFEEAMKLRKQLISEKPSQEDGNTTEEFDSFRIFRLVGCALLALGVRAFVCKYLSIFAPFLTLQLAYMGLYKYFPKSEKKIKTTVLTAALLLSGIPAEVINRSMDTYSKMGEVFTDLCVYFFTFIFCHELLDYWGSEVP
UniProt Q9Y426: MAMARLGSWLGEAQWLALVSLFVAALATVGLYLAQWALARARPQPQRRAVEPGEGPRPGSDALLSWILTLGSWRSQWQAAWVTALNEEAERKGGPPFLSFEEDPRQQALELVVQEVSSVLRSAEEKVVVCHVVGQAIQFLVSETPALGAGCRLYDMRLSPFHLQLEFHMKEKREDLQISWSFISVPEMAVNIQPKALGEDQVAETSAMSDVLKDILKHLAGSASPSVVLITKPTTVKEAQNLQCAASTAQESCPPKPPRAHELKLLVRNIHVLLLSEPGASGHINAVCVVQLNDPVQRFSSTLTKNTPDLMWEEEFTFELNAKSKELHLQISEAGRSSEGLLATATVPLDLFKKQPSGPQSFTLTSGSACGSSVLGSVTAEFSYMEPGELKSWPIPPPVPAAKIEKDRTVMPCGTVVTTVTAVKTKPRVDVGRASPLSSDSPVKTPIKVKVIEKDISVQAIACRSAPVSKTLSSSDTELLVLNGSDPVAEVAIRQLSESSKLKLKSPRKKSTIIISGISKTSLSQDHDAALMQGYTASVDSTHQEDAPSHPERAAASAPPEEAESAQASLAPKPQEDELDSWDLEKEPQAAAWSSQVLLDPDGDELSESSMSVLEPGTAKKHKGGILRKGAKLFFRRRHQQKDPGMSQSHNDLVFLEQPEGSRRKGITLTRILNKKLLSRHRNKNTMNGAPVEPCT
UniProt Q9Y2V2: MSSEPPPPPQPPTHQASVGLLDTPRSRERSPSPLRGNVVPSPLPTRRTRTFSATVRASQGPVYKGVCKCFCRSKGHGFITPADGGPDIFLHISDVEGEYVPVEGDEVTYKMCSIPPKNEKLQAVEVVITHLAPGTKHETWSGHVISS
UniProt Q13555: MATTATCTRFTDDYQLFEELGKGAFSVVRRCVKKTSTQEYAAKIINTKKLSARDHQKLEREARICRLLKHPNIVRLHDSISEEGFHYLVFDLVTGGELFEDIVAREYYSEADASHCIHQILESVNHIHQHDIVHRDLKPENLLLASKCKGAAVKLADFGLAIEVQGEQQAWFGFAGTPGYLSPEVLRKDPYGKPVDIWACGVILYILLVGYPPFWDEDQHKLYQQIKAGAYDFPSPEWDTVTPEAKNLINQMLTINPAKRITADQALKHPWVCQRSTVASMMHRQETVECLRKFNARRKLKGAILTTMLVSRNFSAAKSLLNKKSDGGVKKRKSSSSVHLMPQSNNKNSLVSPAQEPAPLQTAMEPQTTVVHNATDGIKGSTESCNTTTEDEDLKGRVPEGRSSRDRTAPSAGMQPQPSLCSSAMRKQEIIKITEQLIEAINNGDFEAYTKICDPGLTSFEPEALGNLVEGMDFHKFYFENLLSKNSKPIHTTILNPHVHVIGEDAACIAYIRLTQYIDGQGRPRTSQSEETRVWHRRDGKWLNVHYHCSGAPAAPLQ
UniProt P40121: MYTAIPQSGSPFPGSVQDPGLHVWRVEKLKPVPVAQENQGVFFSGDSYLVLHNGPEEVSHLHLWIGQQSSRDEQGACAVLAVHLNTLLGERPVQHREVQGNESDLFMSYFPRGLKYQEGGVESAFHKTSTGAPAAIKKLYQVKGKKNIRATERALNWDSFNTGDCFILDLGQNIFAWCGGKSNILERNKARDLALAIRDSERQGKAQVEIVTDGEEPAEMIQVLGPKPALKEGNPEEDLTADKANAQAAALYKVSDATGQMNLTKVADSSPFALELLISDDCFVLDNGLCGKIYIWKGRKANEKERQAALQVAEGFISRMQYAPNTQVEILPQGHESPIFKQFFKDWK
UniProt Q6P1S2: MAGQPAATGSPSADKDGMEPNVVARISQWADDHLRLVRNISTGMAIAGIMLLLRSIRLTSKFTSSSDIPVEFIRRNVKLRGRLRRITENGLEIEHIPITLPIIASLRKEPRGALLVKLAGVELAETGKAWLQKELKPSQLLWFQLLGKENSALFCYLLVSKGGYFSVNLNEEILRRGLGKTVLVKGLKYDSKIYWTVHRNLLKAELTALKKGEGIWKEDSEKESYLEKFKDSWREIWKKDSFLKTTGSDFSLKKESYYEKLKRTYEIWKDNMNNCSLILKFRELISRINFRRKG
UniProt O14523: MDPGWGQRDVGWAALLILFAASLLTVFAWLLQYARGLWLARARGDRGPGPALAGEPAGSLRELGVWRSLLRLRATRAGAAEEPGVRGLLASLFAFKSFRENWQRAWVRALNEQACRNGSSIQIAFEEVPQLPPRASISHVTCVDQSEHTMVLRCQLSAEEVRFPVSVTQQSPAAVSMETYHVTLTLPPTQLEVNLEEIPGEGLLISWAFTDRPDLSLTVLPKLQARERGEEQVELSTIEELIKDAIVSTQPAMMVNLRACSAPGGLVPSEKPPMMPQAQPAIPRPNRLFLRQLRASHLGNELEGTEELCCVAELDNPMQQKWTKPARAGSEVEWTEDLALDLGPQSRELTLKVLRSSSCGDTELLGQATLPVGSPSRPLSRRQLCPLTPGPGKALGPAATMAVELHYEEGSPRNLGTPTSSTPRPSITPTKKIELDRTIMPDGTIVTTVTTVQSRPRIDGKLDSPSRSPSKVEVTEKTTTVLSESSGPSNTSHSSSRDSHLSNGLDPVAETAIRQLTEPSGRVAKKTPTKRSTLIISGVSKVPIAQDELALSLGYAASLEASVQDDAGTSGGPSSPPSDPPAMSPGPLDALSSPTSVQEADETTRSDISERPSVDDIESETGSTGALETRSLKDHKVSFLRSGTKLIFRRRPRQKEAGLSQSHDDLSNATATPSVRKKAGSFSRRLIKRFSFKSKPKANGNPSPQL
UniProt Q07021: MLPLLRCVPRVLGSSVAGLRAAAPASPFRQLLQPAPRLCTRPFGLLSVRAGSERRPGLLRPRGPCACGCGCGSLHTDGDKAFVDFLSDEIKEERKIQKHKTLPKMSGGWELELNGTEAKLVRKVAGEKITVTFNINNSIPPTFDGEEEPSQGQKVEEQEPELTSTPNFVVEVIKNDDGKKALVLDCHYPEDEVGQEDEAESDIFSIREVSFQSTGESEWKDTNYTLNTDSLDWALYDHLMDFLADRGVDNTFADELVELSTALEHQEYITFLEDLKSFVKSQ
UniProt Q9HB71, whole entry, looked up: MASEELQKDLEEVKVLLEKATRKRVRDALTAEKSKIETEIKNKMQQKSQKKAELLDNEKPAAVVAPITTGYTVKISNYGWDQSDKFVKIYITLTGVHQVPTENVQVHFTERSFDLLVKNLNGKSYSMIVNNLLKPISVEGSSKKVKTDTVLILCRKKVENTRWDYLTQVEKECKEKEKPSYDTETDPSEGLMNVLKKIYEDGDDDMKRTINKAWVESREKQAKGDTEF

[2] = compound: Cc1cccc(CC(=O)N2CCc3c2ccc(-c2cn(C)c4ncnc(N)c24)c3F)n1
In short: as §1

[3] = compound: Cc1cn(-c2cc(NC(=O)c3ccc(C)c(Nc4nccc(-c5cccnc5)n4)c3)cc(C(F)(F)F)c2)cn1 [nilotinib]
In short: as §1

[4] = compound: Cc1nc(Nc2n[nH]c3c2CN(C(=O)N[C@H](CN(C)C)c2ccccc2)C3(C)C)c2sccc2n1
In short: as §1

[5] = compound: Cc1nc(Nc2ncc(C(=O)Nc3c(C)cccc3Cl)s2)cc(N2CCN(CCO)CC2)n1 [dasatinib]
In short: as §1

[6] = compound: Cc1ncc(-c2ccnc(Nc3ccc(S(C)(=O)=O)cc3)n2)n1C(C)C
In short: as §1

[7] = compound: Cn1cc(-c2ccc3c(c2)CCN3C(=O)Cc2cccc(C(F)(F)F)c2)c2c(N)ncnc21
In short: as §1

[8] = compound: Cn1cc(-c2ccc3nnc(C(F)(F)c4ccc5ncccc5c4)n3n2)cn1
In short: as §1

[9] = compound: Cn1cncc1[C@@](N)(c1ccc(Cl)cc1)c1ccc2c(c1)c(-c1cccc(Cl)c1)cc(=O)n2C [tipifarnib]
In short: as §1

[10] = compound: FC(F)(F)c1ccc(/C=C/c2nc(COc3ccc(CCCCn4ccnn4)cc3)co2)cc1 [mubritinib]
In short: as §1

[11] = compound: NC(=O)Nc1cc(-c2cccc(F)c2)sc1C(=O)N[C@H]1CCCNC1
In short: as §1

[12] = compound: NC(=O)c1cnc(N[C@@H]2CCCC[C@@H]2N)nc1Nc1cccc(-n2nccn2)c1
In short: as §1

[13] = compound: NC1(c2ccc(-c3nc4ccn5c(=O)[nH]nc5c4cc3-c3ccccc3)cc2)CCC1
In short: as §1

[14] = compound: NCC(=O)Nc1ccc(-n2nc(C(F)(F)F)cc2-c2ccc3c(ccc4ccccc43)c2)cc1
In short: as §1

[15] = compound: Nc1ccccc1NC(=O)c1ccc(CNC(=O)OCc2cccnc2)cc1 [entinostat]
In short: as §1

[16] = compound: O=C(CCCCCCC(=O)Nc1ccccc1)NO [vorinostat]
In short: as §1

[17] = compound: O=C(CCCCCCNC(=O)c1cnc(N(c2ccccc2)c2ccccc2Cl)nc1)NO [citarinostat]
In short: as §1

[18] = compound: O=C(O)c1ccc2c(c1)nc(Nc1cccc(Cl)c1)c1ccncc12 [silmitasertib]
In short: as §1

[19] = compound: O=C1NC(=O)C(c2cnc3ccccn23)=C1c1cn2c3c(cc(F)cc13)CN(C(=O)N1CCCCC1)CC2
In short: as §1

[20] = compound: c1cc(OCCN2CCCCC2)cc(-c2n[nH]c3ccc(-c4nnc[nH]4)cc23)c1
In short: as §1

Measured: log2 fold change

C1orf174 (UniProt Q8IYL3)
inactive: [1] 0.023 | [2] -0.115 | [3] 0.079 | [4] 0.032 | [5] 0.047 | [6] -0.01 | [7] -0.076 | [8] -0.017 | [9] 0.029 | [10] -0.033 | [11] -0.036 | [12] -0.11 | [13] 0.005 | [14] 0.049 | [15] -0.042 | [16] -0.067 | [17] -0.028 | [18] -0.002 | [19] 0.108 | [20] 0.125

CAPZB (UniProt P47756)
inactive: [1] -0.076 | [2] 0.012 | [3] 0.012 | [4] 0 | [5] 0.023 | [6] -0.001 | [7] 0.014 | [8] 0.058 | [9] -0.024 | [10] 0.018 | [11] 0.003 | [12] -0.058 | [13] 0.012 | [14] -0.015 | [15] -0.016 | [16] -0.004 | [17] -0.028 | [18] -0.042 | [19] -0.073 | [20] 0.018

CAND2 (UniProt O75155)
inactive: [1] -0.098 | [2] 0.007 | [3] -0.008 | [4] -0.003 | [5] 0.063 | [6] -0.018 | [7] -0.005 | [8] 0.077 | [9] 0.109 | [10] 0.061 | [11] -0.02 | [12] 0.1 | [13] -0.003 | [14] -0.022 | [15] -0.001 | [16] 0.009 | [17] -0.019 | [18] -0.021 | [19] -0.019 | [20] 0.004

CAND1 (UniProt Q86VP6)
inactive: [1] -0.034 | [2] 0.014 | [3] -0.005 | [4] 0.003 | [5] 0.043 | [6] -0.004 | [7] 0.017 | [8] 0.015 | [9] -0.058 | [10] 0.02 | [11] 0.009 | [12] 0.014 | [13] -0.049 | [14] 0.024 | [15] -0.008 | [16] 0.008 | [17] 0.041 | [18] -0.024 | [19] -0.011 | [20] -0.012

C1orf109 (UniProt Q9NX04)
inactive: [1] -0.061 | [2] 0.013 | [3] -0.001 | [4] -0.146 | [5] 0.036 | [6] 0.027 | [7] 0.037 | [8] 0.043 | [9] 0.025 | [10] 0.049 | [11] 0.044 | [12] -0.037 | [13] -0.004 | [14] -0.024 | [15] -0.063 | [16] 0.083 | [17] -0.02 | [18] 0.042 | [19] -0.108 | [20] -0.024

CAMLG (UniProt P49069)
inactive: [1] -0.024 | [2] -0.128 | [3] 0.062 | [4] -0.023 | [5] 0.029 | [6] 0.025 | [7] 0.008 | [8] -0.019 | [9] 0.157 | [10] 0.034 | [11] 0.021 | [12] -0.011 | [13] 0.034 | [14] 0.022 | [15] -0.004 | [16] -0.122 | [17] 0.124 | [18] 0.014 | [19] 0.017 | [20] -0.148

C2CD2 (UniProt Q9Y426)
inactive: [1] -0.039 | [2] 0.022 | [3] -0.309 | [4] -0.411 | [5] -0.018 | [6] -0.246 | [7] -0.071 | [8] -0.063 | [9] -0.016 | [10] 0.007 | [11] -0.166 | [12] 0.007 | [13] 0.174 | [14] 0.028 | [15] 0.025 | [16] 0.004 | [17] 0.043 | [18] -0.067 | [19] 0.033 | [20] -0.016

CARHSP1 (UniProt Q9Y2V2)
inactive: [1] 0.07 | [2] 0.015 | [3] 0.127 | [4] -0.095 | [5] 0 | [6] 0.02 | [7] 0.061 | [8] 0.041 | [9] -0.021 | [10] 0.216 | [11] -0.069 | [12] -0.127 | [13] -0.112 | [14] -0.009 | [15] 0 | [16] 0 | [17] 0 | [18] 0.035 | [19] 0.02 | [20] 0.001

BTF3L4 (UniProt Q96K17)
inactive: [1] -0.066 | [2] -0.022 | [3] 0.014 | [4] 0.016 | [5] 0.045 | [6] -0.003 | [7] 0.017 | [8] 0.024 | [9] 0.014 | [10] 0.005 | [11] 0.043 | [12] 0.053 | [13] 0.09 | [14] 0.054 | [15] -0.027 | [16] 0.008 | [17] 0.031 | [18] -0.031 | [19] 0.028 | [20] -0.028

CAMK2G isoform 6 (UniProt Q13555)
active: [4] 0.642
inactive: [1] 0.064 | [2] -0.148 | [3] 0.002 | [5] -0.11 | [6] 0.083 | [7] 0.01 | [8] -0.073 | [9] -0.025 | [10] -0.008 | [11] -0.306 | [12] -0.033 | [13] 0.038 | [14] 0.057 | [15] 0.119 | [16] 0.119 | [17] -0.02 | [18] 0.158 | [19] 0.177 | [20] -0.053

CAPG (UniProt P40121)
inactive: [1] 0.003 | [2] 0.041 | [3] 0.013 | [4] -0.08 | [5] -0.046 | [6] 0 | [7] 0.04 | [8] 0.005 | [9] 0.024 | [10] 0.006 | [11] 0.111 | [12] -0.01 | [13] -0.137 | [14] -0.014 | [15] 0.115 | [16] 0 | [17] 0.054 | [18] -0.005 | [19] -0.084 | [20] 0.026

C3orf33 (UniProt Q6P1S2)
inactive: [1] 0.207 | [2] -0.101 | [3] -0.005 | [4] 0.01 | [5] -0.039 | [6] -0.072 | [7] -0.034 | [8] -0.017 | [9] 0.094 | [10] -0.057 | [11] 0.016 | [12] -0.09 | [13] 0.049 | [14] -0.092 | [15] 0.069 | [16] -0.035 | [17] 0.055 | [18] 0.048 | [19] -0.082 | [20] 0.026

C2CD2L (UniProt O14523)
inactive: [1] -0.069 | [2] -0.029 | [3] 0.043 | [4] -0.079 | [5] 0.085 | [6] -0.05 | [7] 0.028 | [8] 0.027 | [9] -0.005 | [10] 0.016 | [11] 0 | [12] -0.108 | [13] -0.049 | [14] -0.022 | [15] -0.055 | [16] -0.033 | [17] -0.01 | [18] 0.006 | [19] -0.052 | [20] -0.033

C1QBP (UniProt Q07021)
inactive: [1] 0.023 | [2] 0.01 | [3] 0.007 | [4] 0.025 | [5] -0.014 | [6] -0.067 | [7] 0.029 | [8] 0.008 | [9] 0.008 | [10] -0.015 | [11] -0.013 | [12] -0.017 | [13] 0.042 | [14] -0.011 | [15] -0.003 | [16] -0.001 | [17] -0.046 | [18] -0.059 | [19] -0.075 | [20] 0.023

Taken from the entries so far (two entries):
CARHSP1 (UniProt Q9Y2V2)
inactive: [1] 0.07 | [2] 0.015 | [3] 0.127 | [4] -0.095 | [5] 0 | [6] 0.02 | [7] 0.061 | [8] 0.041 | [9] -0.021 | [10] 0.216 | [11] -0.069 | [12] -0.127 | [13] -0.112 | [14] -0.009 | [15] 0 | [16] 0 | [17] 0 | [18] 0.035 | [19] 0.02 | [20] 0.001

BTF3L4 (UniProt Q96K17)
inactive: [1] -0.066 | [2] -0.022 | [3] 0.014 | [4] 0.016 | [5] 0.045 | [6] -0.003 | [7] 0.017 | [8] 0.024 | [9] 0.014 | [10] 0.005 | [11] 0.043 | [12] 0.053 | [13] 0.09 | [14] 0.054 | [15] -0.027 | [16] 0.008 | [17] 0.031 | [18] -0.031 | [19] 0.028 | [20] -0.028

Remaining list, next part:

CACYBP (UniProt Q9HB71)
inactive: [1] -0.039 | [2] 0.015 | [3] -0.029 | [4] -0.017 | [5] -0.014 | [6] -0.003 | [7] 0.02 | [8] 0.002 | [9] 0.021 | [10] 0.037 | [11] -0.021 | [12] -0.079 | [13] -0.062 | [14] -0.051 | [15] 0.012 | [16] 0.004 | [17] -0.002 | [18] -0.036 | [19] -0.093 | [20] -0.004

BUB1 (UniProt O43683)
inactive: [1] -0.013 | [2] -0.101 | [3] -0.206 | [4] 0.062 | [5] 0.019 | [6] -0.061 | [7] 0.006 | [8] 0.163 | [9] 0.027 | [10] 0.057 | [11] -0.09 | [12] -0.192 | [13] -0.142 | [14] -0.202 | [15] 0.002 | [16] -0.018 | [17] -0.069 | [18] 0.002 | [19] -0.044 | [20] -0.003

Reference: the supplement of paper PMC10849652
